No constants are given. Whether binding was seen depends on the method and setting. Where a sequence is shown, tags or fusion partners need not be part of it.
Target: Carboxypeptidase A
Assay: TAP-tag purification from FDCP-1 lysate, identification of prey proteins

binding: no binding
B1: TAP-tagged latexin (TAP-m(ouse)latexin) (protein, mouse, UniProt P70202 1-222, looked up, not shown: large carriers)
chain: MEIPPTHYAASRAASVAENCINYQQGTPHKLFLVQTVQQASKEDIPGRGHKYHLKFSVEEIIQKQVTVNCTAEVLYPQMGQGSAPEVNFTFEGEIGKNPDEEDNTFYQSLMSLKRPLEAQDIPDNFGNVSPQMKPVQHLAWVACGYVMWQNSTEDTWYKMLKIQTVKQVQRNDDFIELDYTILLHDIASQEIIPWQMQVLWHPQYGTKVKHNSRLPKEGQAE
